PubChem BioAssay AID1159584, Peter MacCallum Cancer Centre – 2016
Assay: 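Genes that CDH1-null MCF10A cells selectively depend on to survive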 (primary screen). Cells: human MCF10A breast epithelial cells, parental and CDH1-null. Reagents: siRNA against human genes. Measurement: 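Cell viability by CellTiter-Glo ATP luminescence, each line scaled to the mean of mock wells across plates, then CDH1-null over parental ratio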. Reading the numbers: CDH1-null / parental viability ratio: higher = CDH1-null cells survive relatively better than parental; CDH1-null viability vs mock: higher = more viable CDH1-null cells.
Shown is a random part of about 18,000 reagents tested. Further read-outs or replicates are left out here. Not stated in the record: the amount of reagent, the time to read-out.

| CDH1-null / parental viability ratio | CDH1-null viability vs mock (fraction of mock) | gene |
| --- | --- | --- |
| 0.99 | 0.79 | TUBB6 (tubulin beta 6 class V) |
| 1.24 | 1.26 | LILRB2 (leukocyte immunoglobulin like receptor B2) |
| 0.89 | 0.5 | NSD1 (nuclear receptor binding SET domain protein 1) |
| 0.73 | 0.72 | GOLM2 (golgi membrane protein 2) |
| 1.2 | 1.06 | TXNL4B (thioredoxin like 4B) |
| 0.97 | 0.7 | AIMP2 |
| 0.94 | 0.76 | TTC19 (tetratricopeptide repeat domain 19) |
| 0.48 | 0.31 | CNTN5 (contactin 5) |
| 1.02 | 0.84 | FBXO28 (F-box protein 28) |
| 1.13 | 0.77 | GABRA5 (gamma-aminobutyric acid type A receptor subunit alpha5) |
| 1.06 | 0.89 | ABCB7 (ATP binding cassette subfamily B member 7) |
| 0.93 | 0.8 | DEGS1 (delta 4-desaturase, sphingolipid 1) |
| 0.95 | 0.76 | AGMAT (agmatinase (putative)) |
| 1.29 | 0.54 | C7orf25 (chromosome 7 open reading frame 25) |
| 1.03 | 0.7 | EXOSC5 (exosome component 5) |
| 1.65 | 0.56 | STX6 (syntaxin 6) |
| 1.22 | 0.95 | QDPR (quinoid dihydropteridine reductase) |
| 0.95 | 0.92 | PRPS1L1 (phosphoribosyl pyrophosphate synthetase 1 like 1) |
| 1 | 0.6 | OXA1L (OXA1L mitochondrial inner membrane insertase) |
| 0.88 | 0.82 | GBA2 (glucosylceramidase beta 2) |
| 1.02 | 0.98 | PIGN (phosphatidylinositol glycan anchor biosynthesis class N) |
| 1.03 | 0.68 | MS4A1 (membrane spanning 4-domains A1) |
| 1.06 | 0.86 | PRODH (proline dehydrogenase 1) |
| 1.36 | 0.6 | BFSP1 (beaded filament structural protein 1) |
| 0.85 | 0.8 | INTS6 (integrator complex subunit 6) |
| 1.1 | 0.54 | CRIP1 (cysteine rich protein 1) |
| 1 | 0.99 | NLGN2 (neuroligin 2) |
| 1.04 | 0.8 | PTPRZ1 (protein tyrosine phosphatase receptor type Z1) |
| 0.99 | 0.75 | GRK7 (G protein-coupled receptor kinase 7) |
| 0.98 | 0.82 | CHD7 (chromodomain helicase DNA binding protein 7) |
| 1.06 | 0.84 | DESI2 (desumoylating isopeptidase 2) |
| 1.35 | 1 | OXTR (oxytocin receptor) |
| 1.11 | 0.88 | MYO1E (myosin IE) |
| 0.82 | 0.74 | RNF126 (ring finger protein 126) |
| 0.8 | 0.76 | LARP4 (La ribonucleoprotein 4) |
| 1.05 | 0.8 | CKS1B (CDC28 protein kinase regulatory subunit 1B) |
| 1.32 | 0.9 | ELF4 (E74 like ETS transcription factor 4) |
| 1.03 | 0.7 | OR2V2 (olfactory receptor family 2 subfamily V member 2) |
| 1.03 | 0.64 | DDX3X (DEAD-box helicase 3 X-linked) |
| 0.9 | 0.94 | ASCL1 (achaete-scute family bHLH transcription factor 1) |
| 1.19 | 0.74 | MBD3 (methyl-CpG binding domain protein 3) |
| 1.02 | 0.67 | PPP1R11 (protein phosphatase 1 regulatory inhibitor subunit 11) |
| 1 | 0.86 | FLI1 (Fli-1 proto-oncogene, ETS transcription factor) |
| 0.67 | 0.44 | MED8 (mediator complex subunit 8) |
| 1.22 | 0.78 | ZMAT1 (zinc finger matrin-type 1) |
| 0.94 | 0.85 | KIF5A (kinesin family member 5A) |
| 1.39 | 1.06 | HCAR3 (hydroxycarboxylic acid receptor 3) |
| 0.95 | 0.72 | BACC1 (BPTF associated chromatin complex component 1) |
| 0.99 | 0.71 | ID2 (inhibitor of DNA binding 2) |
| 0.83 | 0.78 | DND1 (DND microRNA-mediated repression inhibitor 1) |
| 0.94 | 0.77 | ZNF767P (zinc finger family member 767, pseudogene) |
| 0.88 | 0.82 | ACAN (aggrecan) |
| 1.01 | 0.83 | CHMP3 (charged multivesicular body protein 3) |
| 1.12 | 0.93 | TYSND1 (trypsin like peroxisomal matrix peptidase 1) |
| 1.33 | 1.38 | COX7B (cytochrome c oxidase subunit 7B) |
| 0.95 | 0.75 | TPH2 (tryptophan hydroxylase 2) |
| 1.04 | 0.73 | ROBO3 (roundabout guidance receptor 3) |
| 1.45 | 0.64 | PIGK (phosphatidylinositol glycan anchor biosynthesis class K) |
| 1.21 | 1.14 | ATP6V0A2 (ATPase H+ transporting V0 subunit a2) |
| 1.22 | 0.84 | INPP5E (inositol polyphosphate-5-phosphatase E) |
| 1.15 | 0.92 | KRTAP9-2 (keratin associated protein 9-2) |
| 1.01 | 0.95 | ATP6V1G3 (ATPase H+ transporting V1 subunit G3) |
| 1.32 | 0.74 | USF3 (upstream transcription factor family member 3) |
| 1.24 | 0.94 | OR2U1P (olfactory receptor family 2 subfamily U member 1 pseudogene) |
| 1.52 | 0.76 | RUNDC3B (RUN domain containing 3B) |
| 0.86 | 0.76 | FAAH (fatty acid amide hydrolase) |
| 1 | 1.12 | RAB3GAP1 (RAB3 GTPase activating protein catalytic subunit 1) |
| 1.45 | 0.93 | NRP2 (neuropilin 2) |
